The target of the assay is Kv1.3 (Rattus norvegicus, UniProt P15384).

Amino acid sequences for entries named in this document (tags omitted).
UniProt P15384, whole entry: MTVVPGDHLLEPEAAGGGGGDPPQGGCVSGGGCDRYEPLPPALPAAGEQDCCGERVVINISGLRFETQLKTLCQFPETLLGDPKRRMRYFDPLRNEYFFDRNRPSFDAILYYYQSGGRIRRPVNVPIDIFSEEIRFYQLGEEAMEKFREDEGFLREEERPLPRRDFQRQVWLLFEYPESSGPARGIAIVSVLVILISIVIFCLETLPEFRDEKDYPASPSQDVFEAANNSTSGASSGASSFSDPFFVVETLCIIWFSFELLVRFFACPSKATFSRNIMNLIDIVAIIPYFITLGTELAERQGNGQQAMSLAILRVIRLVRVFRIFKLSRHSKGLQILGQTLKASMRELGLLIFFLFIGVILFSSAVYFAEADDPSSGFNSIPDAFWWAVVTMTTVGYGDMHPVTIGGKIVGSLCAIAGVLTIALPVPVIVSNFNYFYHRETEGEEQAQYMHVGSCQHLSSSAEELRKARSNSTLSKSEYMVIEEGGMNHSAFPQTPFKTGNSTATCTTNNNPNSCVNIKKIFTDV

The source of these data is PMC5500279, “High-throughput electrophysiological assays for voltage gated ion channels using SyncroPatch 768PE” (PLoS ONE, 2017).

One may read the IC50 as the concentration at which inhibition is half-maximal.

“And” between values parts separate entries of the source, which are not always exact repeats. Equal values may be shown once.

Regarding `CC[C@H](C)[C@@H]1NC(=O)[C@@H](NC(=O)[C@H](CO)NC(=O)[C@@H](N)CCCNC(=N)N)CSSC[C@@H](C(=O)O)NC(=O)[C@H]([C@@H](C)O)NC(=O)CNC(=O)[C@@H]2CSSC[C@@H]3NC(=O)[C@H](CCC(N)=O)NC(=O)[C@H](Cc4ccccc4)NC(=O)[C@H](C)NC(=O)[C@H]([C@@H](C)O)NC(=O)[C@H](CSSC[C@H](NC(=O)[C@H](Cc4ccccc4)NC(=O)[C@H](CO)NC(=O)[C@H](CC(C)C)NC(=O)[C@H](CCCNC(=N)N)NC(=O)[C@H](Cc4ccc(O)cc4)NC(=O)[C@H](CCCCN)NC(=O)[C@H](CCSC)NC(=O)[C@H](CO)NC(=O)[C@H](Cc4cnc[nH]4)NC(=O)[C@H](CCCCN)NC3=O)C(=O)N[C@@H](CCCNC(=N)N)C(=O)N[C@@H](CCCCN)C(=O)N[C@@H]([C@@H](C)O)C(=O)N2)NC(=O)[C@H](CCCNC(=N)N)NC(=O)[C@H](CO)NC(=O)[C@H](CCCCN)NC(=O)[C@@H]2CCCN2C(=O)[C@H]([C@@H](C)CC)NC(=O)[C@H]([C@@H](C)O)NC(=O)[C@H](CC(=O)O)NC1=O` [ShK], the “ShK sensitive current in Kcna3-/- T cells” value is listed as “no Shk sensitive current was detected” and the “WT T cell K+ current blocked” value worked out at 89%. Further, the IC50 (read-out: IC50 Kv1.3 inhibition) was 0.011 nM and 0.0111 nM.
